In publication PMC3079718:
No constants are given. Whether binding was seen depends on the method and setting. Some binding calls cover weakened binding; strength is not graded here. Where a sequence is shown, tags or fusion partners need not be part of it.

Key:
Test in all cases: two-hybrid; bait in pGBKT7, prey in pGADT7-Rec, co-transformed into yeast strain AH109; quantitative beta-galactosidase activity of the colonies
[1] = target: T1, pGBK-AtGILPC (C-terminal domain of AtGILP fused to the DNA binding domain of GAL4) (Arabidopsis thaliana) (UniProt Q94CD4)
T1 sequence: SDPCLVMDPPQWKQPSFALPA

[2] = target: T2, pGBK-AtGILP (AtGILP fused to the DNA binding domain of GAL4) (Arabidopsis thaliana) (UniProt Q94CD4)
T2 sequence: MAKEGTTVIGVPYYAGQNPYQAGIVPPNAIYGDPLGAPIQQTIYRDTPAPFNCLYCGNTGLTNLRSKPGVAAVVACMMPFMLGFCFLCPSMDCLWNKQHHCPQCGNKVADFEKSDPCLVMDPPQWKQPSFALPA

[3] = target: T3, pGBK-AtGILPN (N-terminal domain of AtGILP fused to the DNA binding domain of GAL4) (Arabidopsis thaliana) (UniProt Q94CD4)
T3 sequence: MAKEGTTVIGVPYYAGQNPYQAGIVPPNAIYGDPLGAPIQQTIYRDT

Measured: binding

B1: pGAD-AtPILP1 (Arabidopsis thaliana Pirh2-like protein 1 in the prey vector pGADT7-Rec) (protein, UniProt Q8VZK0 1-267)
chain: MEASPNDRLHFGKMGFGCKHYKRRCQIRAPCCNEVFDCRHCHNESTSTLRNIYDRHDLVRQDVKQVICSVCDTEQPAAQVCSNCGVNMGEYFCSICIFYDDDTEKQQFHCDDCGICRVGGRENFFHCKKCGSCYAVGLRNNHRCVENSMRHHCPICYEYLFDSLKDTNVMKCGHTMHVECYNEMIKRDKFCCPICSRSVIDMSKTWQRLDEEIEATAMPSDYRDKKVWILCNDCNDTTEVHFHIIGQKCGHCRSYNTRAIAPPVLPQ
binds: [1] | [2] | [3]
